Data as given in PMC7433185.
No constants are given. Whether binding was seen depends on the method and setting. Binding seen in cells or lysates may run through a third protein. Some results given as binding are weak or reduced against the parent protein; the word gives no strength. For some of these results: Tags and fused reporters may be left off the sequences shown.

Sequences of proteins named here, by UniProt entry; tags and fusion partners are left off.
UniProt Q99NH2: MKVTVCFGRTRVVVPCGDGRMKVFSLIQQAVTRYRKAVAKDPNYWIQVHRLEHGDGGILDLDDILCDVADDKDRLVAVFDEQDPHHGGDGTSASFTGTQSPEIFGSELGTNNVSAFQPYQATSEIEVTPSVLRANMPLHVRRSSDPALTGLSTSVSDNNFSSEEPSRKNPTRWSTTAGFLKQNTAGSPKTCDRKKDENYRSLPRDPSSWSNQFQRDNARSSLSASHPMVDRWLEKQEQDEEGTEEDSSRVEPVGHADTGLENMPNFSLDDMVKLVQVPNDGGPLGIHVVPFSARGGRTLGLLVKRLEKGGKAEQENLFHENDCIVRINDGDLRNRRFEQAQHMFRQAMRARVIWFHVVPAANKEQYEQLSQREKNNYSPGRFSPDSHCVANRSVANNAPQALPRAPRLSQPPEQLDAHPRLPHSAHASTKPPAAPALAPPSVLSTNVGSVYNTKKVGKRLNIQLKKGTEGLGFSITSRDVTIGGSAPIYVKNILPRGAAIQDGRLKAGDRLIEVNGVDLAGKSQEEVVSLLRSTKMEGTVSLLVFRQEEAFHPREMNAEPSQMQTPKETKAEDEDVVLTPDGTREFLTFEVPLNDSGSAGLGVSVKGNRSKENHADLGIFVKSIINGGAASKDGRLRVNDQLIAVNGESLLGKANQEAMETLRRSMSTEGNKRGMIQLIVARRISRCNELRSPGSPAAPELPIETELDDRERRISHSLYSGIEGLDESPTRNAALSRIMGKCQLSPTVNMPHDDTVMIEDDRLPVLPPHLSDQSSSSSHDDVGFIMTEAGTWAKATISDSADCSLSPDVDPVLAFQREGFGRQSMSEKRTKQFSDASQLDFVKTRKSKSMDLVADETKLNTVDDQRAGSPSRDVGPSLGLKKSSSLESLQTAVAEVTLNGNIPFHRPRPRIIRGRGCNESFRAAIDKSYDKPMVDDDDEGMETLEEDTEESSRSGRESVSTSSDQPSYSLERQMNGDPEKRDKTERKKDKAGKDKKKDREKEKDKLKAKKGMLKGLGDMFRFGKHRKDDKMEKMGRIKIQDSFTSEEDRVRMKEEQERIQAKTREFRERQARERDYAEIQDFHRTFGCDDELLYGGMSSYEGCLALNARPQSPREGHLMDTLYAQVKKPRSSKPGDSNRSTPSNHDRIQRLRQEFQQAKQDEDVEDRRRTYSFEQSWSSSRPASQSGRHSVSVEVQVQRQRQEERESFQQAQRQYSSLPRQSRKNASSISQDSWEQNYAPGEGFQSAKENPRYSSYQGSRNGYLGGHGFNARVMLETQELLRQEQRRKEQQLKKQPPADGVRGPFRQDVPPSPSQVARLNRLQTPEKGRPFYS
UniProt O35346: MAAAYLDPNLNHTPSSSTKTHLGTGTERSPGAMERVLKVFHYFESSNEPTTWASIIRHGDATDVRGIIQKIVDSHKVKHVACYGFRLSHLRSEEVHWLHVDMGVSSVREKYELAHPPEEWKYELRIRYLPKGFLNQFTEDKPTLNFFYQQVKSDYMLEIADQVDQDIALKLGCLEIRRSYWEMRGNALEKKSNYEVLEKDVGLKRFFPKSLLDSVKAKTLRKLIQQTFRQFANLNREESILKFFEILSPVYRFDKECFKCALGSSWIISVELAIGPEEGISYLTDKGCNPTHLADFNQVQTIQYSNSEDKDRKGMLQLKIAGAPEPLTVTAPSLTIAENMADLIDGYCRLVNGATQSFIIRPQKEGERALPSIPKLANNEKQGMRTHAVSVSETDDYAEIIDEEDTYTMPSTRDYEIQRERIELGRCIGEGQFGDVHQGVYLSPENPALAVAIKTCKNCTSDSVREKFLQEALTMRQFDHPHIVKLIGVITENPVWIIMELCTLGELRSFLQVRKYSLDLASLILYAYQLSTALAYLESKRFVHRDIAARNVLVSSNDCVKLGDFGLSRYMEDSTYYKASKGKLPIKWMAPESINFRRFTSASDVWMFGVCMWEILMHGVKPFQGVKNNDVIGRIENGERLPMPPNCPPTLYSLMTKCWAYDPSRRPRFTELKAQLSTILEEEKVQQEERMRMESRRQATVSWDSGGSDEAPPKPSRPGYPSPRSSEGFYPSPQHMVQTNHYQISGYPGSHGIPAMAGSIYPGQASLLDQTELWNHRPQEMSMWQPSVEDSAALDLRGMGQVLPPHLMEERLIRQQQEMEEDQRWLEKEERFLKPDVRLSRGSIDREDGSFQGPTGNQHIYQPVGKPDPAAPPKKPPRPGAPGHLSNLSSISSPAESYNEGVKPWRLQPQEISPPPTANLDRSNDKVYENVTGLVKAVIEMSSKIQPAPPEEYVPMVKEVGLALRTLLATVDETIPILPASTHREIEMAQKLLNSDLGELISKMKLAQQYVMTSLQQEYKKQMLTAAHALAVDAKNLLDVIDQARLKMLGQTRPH

T1: biotinylated Syndecan-4 cytoplasmic tail peptide (K K A P T N E F Y A)
T1 sequence (peptide, biotin (position not stated)): KKAPTNEFYA

T2: Syndecan-4 fused to an extracellular HA-tag, in DI TNC1 astrocytes (UniProt P31431)
T2 sequence: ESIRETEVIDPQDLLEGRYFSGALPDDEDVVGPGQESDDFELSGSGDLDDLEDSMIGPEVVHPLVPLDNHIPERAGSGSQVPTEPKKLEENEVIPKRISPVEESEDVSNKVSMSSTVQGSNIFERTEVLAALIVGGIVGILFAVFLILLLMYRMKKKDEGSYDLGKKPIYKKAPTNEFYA


How the values were obtained:
[1] = target: T1, biotinylated Syndecan-4 cytoplasmic tail peptide (K K A P T N E F Y A); assay: pull-down; biotinylated peptides (15 ug/sample) on streptavidin-Sepharose beads incubated with lysates of DI TNC1 cells, non-stimulated or stimulated with FBS or Thy-1-Fc-Protein A; immunoblot for PAR-3 and Syntenin; only the target purified
[2] = target: T2, Syndecan-4 fused to an extracellular HA-tag, in DI TNC1 astrocytes; assay: proximity ligation; DI TNC1 cells transfected with Syndecan-4-HA or empty plasmid, non-stimulated or treated with Thy-1-Fc-Protein A or TRAIL-R2-Fc-Protein A for 30 min, fixed, permeabilized; DuoLink PLA with antibodies against PAR-3 and HA
[3] = target: T2, Syndecan-4 fused to an extracellular HA-tag, in DI TNC1 astrocytes; assay: co-IP; DI TNC1 cells transfected with Syndecan-4-HA, non-stimulated or treated with Thy-1-Fc-Protein A or TRAIL-R2-Fc-Protein A for 30 min; lysis in 20 mM Tris-HCl pH 7.4, 0.15 N NaCl, 0.5% NP-40; precipitation with mouse anti-HA; blots for PAR-3, FAK, Syndecan-4, Syntenin
[4] = target: PAR-3 of mouse embryonic fibroblasts (mouse (endogenous in MEFs)) (UniProt Q99NH2); assay: co-IP; MEFs stably transfected with Syndecan-4-HA, non-stimulated or stimulated with Thy-1-Fc-Protein A (30 min) or 3% FBS (3 min); lysates precipitated with rabbit anti-PAR-3; blots for HA and Syntenin

binding [4]	Molecule	binding [1]	binding [2]	binding [3]
	Atypical protein kinase C isotype-specific interacting (PAR-3) (from UniProt Q9Z340-1 1-1337)	binds	binds	binds
	Focal Adhesion Kinase (from UniProt O35346 1-1055) (enzyme)			binds
	Syntenin-1 (protein, UniProt Q9JI92 1-300) MSLYPSLEDLKVDKVIQAQTASSANPASQAFFLNVVDSAAFPPGGNLYPKLYPELSQYMGLSLSEAEICENMPVVSGAPTQGQLVARPSSVNYMVAPVTGNDAGIRRAEIKQGIREVILCKDQDGKIGLRLKSVDNGIFVQLVQANSPASLVGLRFGDQVLQINGENCAGWSSDKAHKVLKQAFGEKITMTIRDRPFERTVTMHKDSSGHVGFIFKSGKITSIVKDSSAARNGLLTDHHICEINGQNVIGLKDAQIADILSTAGTVVTITIMPAFIFEHIIKRMAPSIMKSLMDHTIPEV	binds		binds
binds	Syndecan-4 fused to an extracellular HA-tag, in mouse embryonic fibroblasts (receptor, UniProt P31431 19-198) ESIRETEVIDPQDLLEGRYFSGALPDDEDVVGPGQESDDFELSGSGDLDDLEDSMIGPEVVHPLVPLDNHIPERAGSGSQVPTEPKKLEENEVIPKRISPVEESEDVSNKVSMSSTVQGSNIFERTEVLAALIVGGIVGILFAVFLILLLMYRMKKKDEGSYDLGKKPIYKKAPTNEFYA			
